{
  "source": "paper PMC10605010",
  "about": "“Immunotechniques for the Group Determination of Macrolide Antibiotics Traces in the Environment Using a Volume-Mediated Sensitivity Enhancement Strategy” (Biosensors, 2023)",
  "assay": "Recovery of macrolides from spiked environmental water by PrG-ELISA",
  "key": {"[1]": {"conditions": "spike level 0.15 ng/mL, sample dilution 10"}, "[2]": {"conditions": "spike level 3.33 ng/mL, sample dilution 100"}, "[3]": {"conditions": "spike level 0.075 ng/mL, sample dilution 10"}, "[4]": {"conditions": "spike level 2.00 ng/mL, sample dilution 100"}, "[5]": {"conditions": "spike level 0.75 ng/mL, sample dilution 10"}, "[6]": {"conditions": "spike level 1.05 ng/mL, sample dilution 10"}},
  "data": [
    {"smiles": "CC[C@H]1OC(=O)[C@H](C)[C@@H](O[C@H]2C[C@@](C)(OC)[C@@H](O)[C@H](C)O2)[C@H](C)[C@@H](O[C@@H]2O[C@H](C)C[C@H](N(C)C)[C@H]2O)[C@](C)(O)C[C@@H](C)CN(C)[C@H](C)[C@@H](O)[C@]1(C)O", "note": "[AZI, azithromycin]", "values": [
      {"measurement": "Found concentration, ERY eqs", "setting": "[1]", "result": 0.083, "unit": "ng/mL"},
      {"measurement": "RC (recovery)", "setting": "[1]", "result": 141.3, "unit": "%"},
      {"measurement": "Found concentration, ERY eqs", "setting": "[2]", "result": 1.27, "unit": "ng/mL"},
      {"measurement": "RC (recovery)", "setting": "[2]", "result": 95.2, "unit": "%"}
    ]},
    {"smiles": "CC[C@H]1OC(=O)[C@H](C)[C@@H](O[C@H]2C[C@@](C)(OC)[C@@H](O)[C@H](C)O2)[C@H](C)[C@@H](O[C@@H]2O[C@H](C)C[C@H](N(C)C)[C@H]2O)[C@](C)(OC)C[C@@H](C)C(=O)[C@H](C)[C@@H](O)[C@]1(C)O", "note": "[CLA, clarithromycin]", "values": [
      {"measurement": "Found concentration, ERY eqs", "setting": "[3]", "result": 0.069, "unit": "ng/mL"},
      {"measurement": "RC (recovery)", "setting": "[3]", "result": 97.3, "unit": "%"},
      {"measurement": "Found concentration, ERY eqs", "setting": "[4]", "result": 1.97, "unit": "ng/mL"},
      {"measurement": "RC (recovery)", "setting": "[4]", "result": 103.5, "unit": "%"}
    ]},
    {"smiles": "CC[C@H]1OC(=O)[C@H](C)[C@@H](O[C@H]2C[C@@](C)(OC)[C@@H](O)[C@H](C)O2)[C@H](C)[C@@H](O[C@@H]2O[C@H](C)C[C@H](N(C)C)[C@H]2O)[C@](C)(O)C[C@@H](C)[C@@H]2N[C@@H](COCCOC)O[C@H]([C@H]2C)[C@]1(C)O", "note": "[DIR, dirithromycin]", "values": [
      {"measurement": "Found concentration, ERY eqs", "setting": "[5]", "result": 0.37, "unit": "ng/mL"},
      {"measurement": "RC (recovery)", "setting": "[5]", "result": 114.3, "unit": "%"}
    ]},
    {"smiles": "CCOC(=O)CCC(=O)O[C@H]1[C@H](O[C@@H]2[C@@H](C)[C@H](O[C@H]3C[C@@](C)(OC)[C@@H](O)[C@H](C)O3)[C@@H](C)C(=O)O[C@H](CC)[C@@](C)(O)[C@H](O)[C@@H](C)C(=O)[C@H](C)C[C@@]2(C)O)O[C@H](C)C[C@@H]1N(C)C", "note": "[ESE, erythromycin ethyl succinate]", "values": [
      {"measurement": "Found concentration, ERY eqs", "setting": "[6]", "result": 0.50, "unit": "ng/mL"},
      {"measurement": "RC (recovery)", "setting": "[6]", "result": 83.8, "unit": "%"}
    ]}
  ]
}
